Results published in patent publication US20240034722A1, “PRETARGETING IMAGING AGENTS” (Eli Lilly and Company, priority 2020, published 2024).

System: Malat1 ASO-TCO
Experiment: Reaction of [19F] tetrazines with Malat1 ASO-TCO monitored by LC-MS
Conditions: two equivalents tetrazine, water, room temperature, 30 min
Description: Based on literature precedent, the tetrazines claimed herein would be expected to have utility as prosthetic groups for the labeling of biomolecules. The reactivity of tetrazines N-(4-(1,2,4,5-tetrazin-3-yl)benzyl)-2-fluoropicolinamide and N-(4-(1,2,4,5-tetrazin-3-yl)benzyl)-6-fluoropicolinamide with trans cyclooctene (TCO) conjugated to a biomolecule, Malat1 antisense oligonucleotide (ASO) (2019 World Molecular Imaging Congress Conference, Poster 139), was confirmed in both [^19F] and [^18F] experiments monitored with LC-MS and HPLC-radiodetection, respectively.
To a solution of 2.5 mg/mL (2.67 μM) Malat1 ASO-TCO in water, two equivalents tetrazine was added, and gently shaken at room temperature, protected from light, for 30 min. The reaction mixture was monitored by ES/MS on a Waters® Acquity UPLC system equipped with a Waters® Xevo QT of mass spectrometer. LC-MS conditions were as follows: column: Waters® ACQUITY PREMIER UPLC Oligonucleotide BEH C18 (130 Å. 1.7 μm, 2.1 mm×50 mm); wavelength 250-650 nm; gradient: initial hold at 5% B for 3.5 min, 5-75% B in 1.5 min, hold 75% B for 4 min, increase from 75-98% B in 0.5 min, hold 98% B for 1 min, and return to 5% B to reequilibrate; column temperature: 70° C. +/−5° C.; flow rate: 0.2 mL/min; solvent for A: 7 mM TEA and 100 mM HFIP in water; solvent for B; 7 mM TEA and 100 mM HFIP in 75% methanol/25% acetonitrile. […]

O=C(NCc1ccc(-c2nncnn2)cc1)c1cccnc1F [Example 1, N-(4-(1,2,4,5-tetrazin-3-yl)benzyl)-2-fluoronicotinamide]
Reaction of Malat1 ASO-TCO with tetrazine (LC-MS): full reaction

O=C(NCc1ccc(-c2nncnn2)cc1)c1cccc(F)n1 [Example 3, N-(4-(1,2,4,5-tetrazin-3-yl)benzyl)-6-fluoropicolinamide]
Reaction of Malat1 ASO-TCO with tetrazine (LC-MS): full reaction
